From PMC7327168 come the findings set out here.

Chains of the proteins cited; added tags and fusions are not shown. Lines headed by an entry give the natural chain unless they say otherwise; changes in a name come on top.
UniProt Q9HX38: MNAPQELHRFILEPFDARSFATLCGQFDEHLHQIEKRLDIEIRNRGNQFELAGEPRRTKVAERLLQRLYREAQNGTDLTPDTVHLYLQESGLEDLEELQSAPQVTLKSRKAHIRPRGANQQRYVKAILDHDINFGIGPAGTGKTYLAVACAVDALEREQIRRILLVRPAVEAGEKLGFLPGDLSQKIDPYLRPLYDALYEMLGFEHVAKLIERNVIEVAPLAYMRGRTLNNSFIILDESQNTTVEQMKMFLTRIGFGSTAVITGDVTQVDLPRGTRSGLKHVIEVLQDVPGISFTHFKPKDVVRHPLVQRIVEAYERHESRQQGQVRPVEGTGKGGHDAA

For the experiment, the target named is YbeZ-GST (P. aeruginosa YbeZ fused to GST) (Pseudomonas aeruginosa PA14) (UniProt Q9HX38). The experiment in a line: pull-down; GST or YbeZ-GST bound to GST tag purification resin; incubated with PA14 cell lysate containing YbeY-His for 2 h at 4°C; washed three times with lysis buffer (phosphate, 0.3 M NaCl, pH 8.0); eluted with 60 mM reduced glutathione; Western blot; only the target purified. For orientation: A western blot detects proteins with antibodies after separation by electrophoresis.

These are yes or no findings as the source states them, for the method shown. In cells and extracts the contact can be indirect. Binding can be weak; no strength is given. Where a sequence is shown, tags or fusion partners need not be part of it.

B1: YbeY-His (C-terminal 6×His-tagged P. aeruginosa endoribonuclease YbeY) (enzyme, UniProt Q9HX37 1-160)
chain: MPLELDLQVASAAPDLPSEAQFRAWCELALRQRPESELTIRLVDEAEGLELNSTYRHKDYATNVLSFPADVPDELLDIPLLGDLVICAPVVAREALEQRKPLQAHWAHLVIHGCLHLLGYDHIDDAEAEEMETLERELLAELGHPDPYACDDEEPPSKEK
Take B1: the binding entry was “binds”.
